Measured values taken from PubChem BioAssay AID1471 (National Center for Advancing Translational Sciences (NCATS), 2008).
In all, about 230,000 compounds went through this assay and about 310 (0.13%) were called active. Inconclusive means that the source gave no clear call. Such entries were picked first, then a sample of the others. The call rests on the fitted dose curve; in most records, active means well fitted activation curve with a large enough effect; inconclusive means small, poorly fitted or top-dose-only effect; inactive means no such curve, though single readings can be large or run the other way. Where the call is inconclusive, the potency comes from a doubtful curve fit.

experiment: qHTS Multiplex Assay to Identify Dual Action Probes in a Cell Model of Huntington: Cytoprotection (ATP); details: PC12 HTT-Q103 induced, ATP luminescence, 40 h; cytoprotection (ATP increase): at 56.4 µM (top of the series) unless noted; further: nearly all actives have a fitted effect of over 45% in size;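 on cytoprotection (ATP increase): toxic huntingtin expression switched on by the ecdysone agonist tebufenozide; % of control where 0% means no effect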
Method in brief: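 Rat PC12, Q103 Htt exon1-GFP fusion, ecdysone promoter; tebufenozide inducer 100 nM final; compound titration; qHTS, 1500 cells/well; ATPlite luminescent read.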
Potency means the concentration at half of the fitted maximal effect.

SMILES	Potency	cytoprotection (ATP increase)
CC(O)(CS(=O)(=O)Cc1ccccc1Cl)C(=O)Nc1cccc(C(F)(F)F)c1 (configuration not stated)	inconclusive: 8.91 µM [activator, partial curve, poor fit]	
Cc1cnc(C(=O)OCC(=O)N2CCc3ccccc32)cn1	inconclusive: 3.55 µM [activator, single point]	
O=C(c1cnccn1)N1CCC[C@@]2(CCN(c3ccccn3)C2)C1	inconclusive: 0.891 µM [activator, full curve, poor fit]	
O=[N+]([O-])c1nn(-c2ccccc2)[n+]([O-])c1N1CCN(c2ccccc2)CC1	inconclusive: 20 µM [activator, single point]	
CCCC(c1nnnn1Cc1ccco1)N1CCC(C(N)=O)CC1 (configuration not stated)		inactive: 1.07% [at 10 µM]
CN(C)S(=O)(=O)c1ccc(C(=O)NC2CCCc3ccccc32)cc1 (configuration not stated)	inconclusive: 10 µM [activator, single point]	
CC(C)c1ccccc1NC(=O)COC(=O)c1cc(=O)[nH]c(=O)[nH]1	inconclusive: 25.1 µM [activator, single point]	
CCN1/C(=C\C=C(C(C)=O)C(C)=O)Sc2ccccc21	inactive	
O=C(NCc1cccnc1)c1ccccc1-c1ccccc1	inconclusive: 0.891 µM [activator, single point]	
C[C@]12CC3CC(N)(C1)C[C@@](C)(C3)C2	inconclusive: 0.708 µM [activator, single point]	
CC(C)CC(NC(N)=O)C(=O)Nc1ccc2c(c1)OCO2 (configuration not stated)	inactive	
Cc1ccccc1OCc1nc2ccccc2c(=O)n1NC(=O)c1ccco1		inactive: 31.9% [at 10 µM]
Cc1nc([N+](=O)[O-])c(Sc2nc3ccccc3[nH]2)n1Cc1ccccc1	inconclusive: 5.62 µM [activator, single point]	
Cc1ccc(NC(=O)/C=C/c2ccc([N+](=O)[O-])s2)c(C)c1	inconclusive: 3.16 µM [activator, single point]	
CC(C)c1ccc(NC(=O)COC(=O)[C@H](CCC(N)=O)NC(=O)c2ccc(F)cc2)cc1	inconclusive: 0.112 µM [activator, partial curve, poor fit]	
CNNCc1ccc(C(=O)NC(C)C)cc1	inconclusive: 0.708 µM [activator, full curve, poor fit]	
OC(CCl)CCl	inconclusive: 39.8 µM [activator, single point]	
COc1ccccc1NC(=O)c1cn(C)c(=O)c2cc(OC)c(OC)cc12	inconclusive: 5.01 µM [activator, partial curve]	
CN(C)/N=N\c1nc[nH]c1C(N)=O	inconclusive: 0.0447 µM [activator, full curve, poor fit]	
CN(C)CCC=C1c2ccccc2C=Cc2ccccc21	inconclusive: 0.005 µM [activator, full curve, poor fit]	
C/C(=N\NC(=S)NCCc1ccccc1)c1cccc(Br)c1	inconclusive: 12.6 µM [activator, single point]	
CCCCC#CC1C=CC(OC(C)=O)C(COC(C)=O)O1 (configuration not stated)	inconclusive: 0.891 µM [activator, partial curve, poor fit]	
C[N+]1(C)CCC(=C(c2ccccc2)c2ccccc2)CC1	inconclusive: 12.6 µM [activator, single point]	

SMILES	Potency	cytoprotection (ATP increase)
CCn1c(=O)c(C(=O)Nc2ccsc2C(=O)OC)c(O)c2ccccc21	inconclusive: 0.501 µM [activator, single point]	
COCCn1c(SCc2nnc(-c3ccccc3)o2)nc2sc3c(c2c1=O)CCC3		inactive: -13.8% [at 10 µM]
Nc1ncnc2c1ncn2[C@@H]1O[C@H](COP(=O)(O)O)[C@@H](O)[C@H]1O	inconclusive: 0.794 µM [activator, full curve, poor fit]	
COc1ccc(-n2c(SCc3ccc(C#N)cc3)nnc2-c2ccccn2)cc1	inconclusive: 3.16 µM [activator, single point]	
CCOC(=O)CCCSc1nnc(CCCCCN2C(=O)c3cccc4cccc(c34)C2=O)o1	active: 2.51 µM	
COc1ccc(/C=C/C(=O)c2cccs2)cc1OC	inconclusive: 0.631 µM [activator, single point]	
O=C(O)c1cccc(NS(=O)(=O)c2ccc3c(c2)OCCCO3)c1	inconclusive: 6.31 µM [activator, single point]	
Cc1[nH]nc2c1C(c1ccsc1)C1=C(CC(C)(C)CC1=O)N2 (configuration not stated)	inconclusive: 35.5 µM [activator, single point]	
CNC(=O)c1cc(C(=O)c2ccccc2C(F)(F)F)c[nH]1	inconclusive: 15.8 µM [activator, single point]	
CC1=C(/C=C/C(C)=C/C=C/C(C)=C/C(=O)Nc2ccc(O)cc2)C(C)(C)CCC1	inconclusive: 39.8 µM [activator, single point]	
O=C1[C@@H]2[C@H]3[C@H](O)[C@H](O)C/C(=N/OCc4ccccc4)[C@H]3CC[C@H]2C(=O)N1c1ccc(F)cc1F	inconclusive: 0.355 µM [activator, full curve]	
Cc1ccc([N+](=O)[O-])cc1S(=O)(=O)N1CCN(C)CC1	inconclusive: 22.4 µM [activator, single point]	
CCOC(=O)c1c(C)oc2ccc(OCC(N)=O)cc12		inactive: -6.6% [at 10 µM]
COc1ccc(Nc2nc(N)nc(CSc3nccn3C)n2)cc1	inconclusive: 3.16 µM [activator, single point]	
Cc1ccccc1-c1nc(N2CCNCC2)c2ccccc2n1	inconclusive: 20 µM [activator, partial curve]	
COc1cccc(NC(=S)NCc2cccs2)c1	inconclusive: 2.82 µM [activator, partial curve, poor fit]	
C[C@]1(C(=O)NCCN2CCOCC2)C=C[C@@H](Cc2ccccc2)N1C(=O)c1ccccc1	inconclusive: 25.1 µM [activator, partial curve, poor fit]	
C=CCn1c(CNC(=O)c2ccccc2F)nnc1SCc1nc2ccccc2c(=O)[nH]1	inconclusive: 5.62 µM [activator, single point]	
CCOc1ccc(NC(=O)CCSc2ccc3ccccc3n2)cc1		inactive: -16% [at 10 µM]
CC(=O)Oc1cc(C(C)C)c(OCCN(C)C)cc1C	inconclusive: 0.0891 µM [activator, full curve]	
Clc1cccc(CN2CCC(Cc3ccccc3)CC2)c1	inactive	
CCOc1ccccc1CN1CCN(CCCn2cccn2)CC1CCO (configuration not stated)	inconclusive: 0.447 µM [activator, single point]	
O=C(c1ccc(Cl)c(Cl)c1)N1CCC(O)(CN2CCOCC2)CC1	inactive	

SMILES	Potency	cytoprotection (ATP increase)
S=C(NCCCN1CCOCC1)Nc1ccc(N2CCOCC2)cc1	inconclusive: 0.794 µM [activator, single point]	
Cc1cc2[nH]c(=S)[nH]c2cc1C		inactive: 31.9% [at 10 µM]
CN1CCN(c2ccc(S(=O)(=O)N3CCCCC3)cn2)CC1	inconclusive: 1.26 µM [activator, single point]	
CCC(=O)N(CCC(Cc1ccccc1)c1ccco1)Cc1ccco1 (configuration not stated)		inactive: 15.5% [at 10 µM]
N#CCSc1ncnc2c1cnn2CCO	inconclusive: 20 µM [activator, partial curve, poor fit]	
O=C(CCCOc1ccc(Cl)cc1Cl)NCc1ccncc1	inconclusive: 5.62 µM [activator, single point]	
CC(c1ccon1)N(C)C(=O)CCc1nnc(CCCCc2ccccc2)o1 (configuration not stated)	inactive	
CN(C(=O)CSc1nc2cc(C(=O)O)ccc2c(=O)n1Cc1ccccc1)C1CCS(=O)(=O)C1 (configuration not stated)	inactive	
COc1ccc([C@@H]2CC(=O)c3c(O)cc(O)cc3O2)cc1O	inconclusive: 1 µM [activator, single point]	
Cc1ccc(S(=O)(=O)Oc2ccc(/C=N/NC(=O)c3cccnc3)cc2)cc1	inconclusive: 0.447 µM [activator, full curve, poor fit]	
C=CCC(Nc1ccc(OC)cc1)(C(=O)OCC)c1ccccc1 (configuration not stated)	inconclusive: 3.55 µM [activator, single point]	
CCOC(=O)c1ccc(NC(=O)Cn2ccc([N+](=O)[O-])n2)cc1	inconclusive: 0.562 µM [activator, partial curve, poor fit]	
COC(=O)C1=C2SC(C)C(=O)N2C(N)=C(C#N)C1c1ccc(OC)c(OC)c1 (configuration not stated)	inactive	
COc1ccc(-n2cc(C(=O)c3cc(Cl)ccc3O)cc(C#N)c2=O)cc1	inactive	
O=C(CSc1nc2ccccc2o1)N1CCN(S(=O)(=O)c2ccc3ccccc3c2)CC1	inconclusive: 5.62 µM [activator, single point]	
C=CCOc1c(CNc2cccc(C(=O)O)c2)cccc1OC	inconclusive: 3.98 µM [activator, single point]	
Cc1ccc(C)c(NC(=O)c2cccc(Oc3ccc([N+](=O)[O-])cc3Cl)c2)c1	inconclusive: 1.26 µM [activator, single point]	
CCOC(=O)Cc1csc(NC(=O)CCCC(=O)O)n1		inactive: 6.61% [at 10 µM]
CCOC(=O)C1CCCN(C(=O)CC(c2ccccc2)c2ccccc2)C1 (configuration not stated)		inactive: 6.74% [at 10 µM]
Cc1[nH]ccc2c1[nH]c1cc(=O)ccc12	inconclusive: 31.6 µM [activator, single point]	
Cc1nc2ccc(S(=O)(=O)Nc3ccccc3C)cc2s1	inconclusive: 0.112 µM [activator, partial curve, poor fit]	

A second format for 2 compounds above.
SMILES | Potency | cytoprotection (ATP increase)
CN(C(=O)CSc1nc2cc(C(=O)O)ccc2c(=O)n1Cc1ccccc1)C1CCS(=O)(=O)C1 (configuration not stated) | inactive | 
COc1ccc([C@@H]2CC(=O)c3c(O)cc(O)cc3O2)cc1O | inconclusive: 1 µM [activator, single point] | 
